Columns and labels:
[1] = tensile strength (load weight, displacement, stress, specific stress, strain at the maximum load point); settings: dyed fabric of polyester/rayon
[2] = color fastness to abrasion, Example 8; settings: dyed fabric of nylon/polyacrylonitrile
[3] = color fastness to abrasion, Example 8; settings: dyed fabric of nylon

Compound `ClC(Cl)=C(Cl)Cl` [perchloroethylene] has a displacement ([1]; dry-cleaned five times) of 57.82 mm, a load weight ([1]; dry-cleaned five times) of 55.11 kg and a specific stress ([1]; dry-cleaned five times) of 55.11 kg/L. It also gave a strain ([1]; dry-cleaned five times) of 28.91%, a stress ([1]; dry-cleaned five times) of 3.06 kg/mm^2 and a displacement ([1]; dry-cleaned one time) of 53.34 mm. The load weight ([1]; dry-cleaned one time) was 45.57 kg, the specific stress ([1]; dry-cleaned one time) was 45.57 kg/L and the strain ([1]; dry-cleaned one time) was 26.67%. The stress ([1]; dry-cleaned one time) was 2.53 kg/mm^2, the displacement ([1]; dry-cleaned two times) was 57.02 mm and the load weight ([1]; dry-cleaned two times) was 47.57 kg. The specific stress ([1]; dry-cleaned two times) was 47.57 kg/L, the strain ([1]; dry-cleaned two times) was 28.5% and the stress ([1]; dry-cleaned two times) was 2.64 kg/mm^2. The “the grade of the color fastness to abrasion, after the test” value (“the grade … after the test” for short) ([2]; dry-cleaned five times) was “fourth to fifth grade”, the “the grade of the color fastness to abrasion, before the test” value (shortened to “the grade … before the test”) ([2]; dry-cleaned five times) was “fourth to fifth grade” and the “the grade … after the test” value ([2]; dry-cleaned one time) was “fourth to fifth grade”. For the same compound, the “the grade … before the test” value ([2]; dry-cleaned one time) was “fourth to fifth grade”, the “the grade … after the test” value ([2]; dry-cleaned two times) was “fourth to fifth grade” and the “the grade … before the test” value ([2]; dry-cleaned two times) was “fourth to fifth grade”. For the same compound, the “the grade … after the test” value ([3]; dry-cleaned five times) was “fourth to fifth grade”, the “the grade … before the test” value ([3]; dry-cleaned five times) was “fourth to fifth grade” and the “the grade … after the test” value ([3]; dry-cleaned one time) was “fourth to fifth grade”. For the same compound, the “the grade … before the test” value ([3]; dry-cleaned one time) was “fourth to fifth grade”, the “the grade … after the test” value ([3]; dry-cleaned two times) was “fourth to fifth grade” and the “the grade … before the test” value ([3]; dry-cleaned two times) was “fourth to fifth grade”.

Reference: patent publication US6491729B1
